Assay results published in PubChem BioAssay AID1347075 (National Center for Advancing Translational Sciences (NCATS), 2019).
About 5,500 (1.4%) of roughly 400,000 compounds were called active. The shares of active, inactive and inconclusive entries below differ from those in the screen. Calls come from the whole dose curve; as a rule, active = well fitted cell-killing curve with a large enough effect; inconclusive = small, poorly fitted or top-dose-only effect, or effect the other way; inactive = flat fitted curve, though single readings scatter. Where the call is inconclusive, the potency comes from a doubtful curve fit.

Assay: qHTS assay for MDR1-selective chemotherapeutics: Primary screen using the parental adenocarcinoma cell KB-3-1; note: nearly all actives have a fitted effect of over 60% in size
Conditions: KB-3-1 viability, CellTiter-Glo ATP luminescence, 72 h; activity change, negative = cytotoxic: at 46.1 µM (top of the series)
Text: A prime difficulty in effectively treating cancer is the development of cellular resistance to multiple structurally unrelated anticancer drugs, a phenomenon known as multidrug resistance (MDR). […] Numerous strategies to overcome P-gp-mediated MDR have been explored, including the design of drugs that evade recognition and efflux, and development of inhibitors to block efflux and restore drug accumulation. […] An alternative approach is to exploit resistance by identifying drugs that target MDR cells over the non-resistant parental cells from which they were selected. […] The development of MDR1-selective agents represents a new strategy for resolving multidrug resistance, as it remains a long-standing clinical challenge for cancer chemotherapy.
Our goal is to identify compounds that selectively kill P-gp-expressing MDR cells. We will identify MDR1-selective compounds by comparing toxicity of compounds in the screening library against parental, drug-naive (KB-3-1) adenocarcinoma cells as well as their drug-selected MDR sub-line (KB-V1). The differential toxicity of compounds against these two cell lines will be used to identify MDR1-selective compounds, whose cytotoxicity is potentiated, rather than diminished, by P-gp expression. This assay will be utilized to conduct a quantitative high-throughput screen (qHTS) in collaboration with the NIH Chemical Genomics Center to identify selective agents, and probe hits arising from the screen will be validated using secondary assays and characterized through a well-established follow-up research program. This screen was run against the entire NCGC library collection of about 400,000 compounds.
NIH Molecular Libraries Probe Production Network [MLPCN]
NIH Chemical Genomics Center [NCGC]
PI: Michael Gottesman PhD, National Cancer Institute, NIH
Briefly, 5 microL of media containing either KB-3-1 cells (columns 1-2, 4-48) are dispensed into Greiner white, treated solid-bottom 1536-well assay plates (media-only control is added to column 3). Compounds are then transferred via Kalypsys pin tool equipped with 1536-pin array (10 nL slotted pins, V&P Scientific, San Diego, CA). Following addition of compound, the plates are incubated at 37 degrees C for 72 hours. CellTiter-Glo (2.5 µL/well) is then added, and the plates are read in a ViewLux reader (Perkin-Elmer, clear luminescence filter, 1 second exposure, 1x binning) following a 10 minute incubation. All cells are dispensed in DMEM phenol-red free media containing 10% FBS.
Library plates were screened starting from the lowest and proceeding to the highest concentration. Vehicle-only plates, with DMSO being pin-transferred to columns 5-48, will be inserted uniformly at the beginning and the end of each library in order to monitor and record any shifts in the background, which can be affected by reagent dispensers or loss in enzyme activity over time. Screening data will be corrected, normalized, and concentration-effect relationships will be derived by using publicly-available NCGC, NCATS curve fitting algorithms (http://ncgc.nih.gov/pub/openhts).
% is set by controls: 0 for no effect and ±100 for the full control effect; potency is the fitted concentration of half-maximal effect.

SMILES | Potency | activity change, negative = cytotoxic
COC12C(COC(N)=O)C3=C(C(=O)C(C)=C(N)C3=O)N1CC1C2N1C (stereo unspecified) | inconclusive: 20.6 µM [cytotoxic, single point] | –
CCOC(=O)CC(NC(=O)C(Cc1ccc(N(CCCl)CCCl)cc1)NC(C)=O)C(=O)OCC (stereo unspecified) | inactive | –
CC(=O)c1cn(Cc2ccc(C#N)cc2)c2ccccc12 | inactive | –
O=C(Nc1ccc(Cl)cc1C(=O)c1ccccc1)c1ccco1 | inactive | –
Nc1ncnc2c1ccn2[C@@H]1O[C@H](CO)[C@@H](O)[C@H]1O | active: 0.184 µM | –
Cc1ccc2c(c1)C1CN(C)CCC1N2C(=O)Nc1cccc(Cl)c1 (stereo unspecified) | inconclusive: 9.2 µM [cytotoxic, partial curve, poor fit] | –
COC(=O)C1=C(c2cccc(OCc3ccccc3)c2)C[C@@H]2CC[C@H]1N2C(=O)NCc1ccc(Cl)cc1 | inconclusive: 18.4 µM [cytotoxic, single point] | –
Cn1cccc1/C=C1/C(=O)NC(=S)N(Cc2ccc(F)cc2)C1=O | inconclusive: 20.6 µM [cytotoxic, single point] | –
COC1C(OC(=O)c2ccc(C)[nH]2)C(O)C(Oc2ccc3c(O)c(NC(=O)c4ccc(O)c(CC=C(C)C)c4)c(=O)oc3c2Cl)OC1(C)C (stereo unspecified) | inconclusive: 32.6 µM [cytotoxic, partial curve, poor fit] | –
O=C(N/N=C/c1c(O)n(Cc2ccc(F)cc2)c(=O)[nH]c1=O)c1ccccc1 | inconclusive: 16.4 µM [rising, partial curve, poor fit] | –
Cn1cccc1C1CCCN1CC(=O)Nc1ccc(C#N)c(Cl)c1 (stereo unspecified) | inconclusive: 13 µM [rising, partial curve] | –
CCN(CC)c1ccc(N=Cc2c(O)n(-c3ccccc3C)c(=O)[nH]c2=O)cc1 | inactive | –
CCOc1cc(CNCCc2c[nH]c3ccccc23)cc(Cl)c1OCC | inconclusive: 29.1 µM [cytotoxic, single point] | –
CSCCC(c1nnnn1C(C)(C)C)N1CCC2(CC1)C(=O)NCN2c1ccccc1 (stereo unspecified) | inactive | –
ClCCN(CCCl)/C(=C\c1ccccc1)c1ccnc2ccccc12 | inconclusive: 9.2 µM [rising, partial curve, poor fit] | –
CCn1nc(-c2cccs2)nc2c(=O)n(C)c(=O)nc1-2 | inconclusive: 3.66 µM [cytotoxic, partial curve, poor fit] | –
c1ccc2c(CNC3CCCCC3)c[nH]c2c1 | inconclusive: 35.5 µM [cytotoxic, single point] | –
Cc1ccc(S(=O)(=O)N(c2cc(Cl)c(O)c(Cl)c2)P(=O)(OC(C)C)OC(C)C)cc1 | inconclusive: 14.6 µM [rising, partial curve, poor fit] | –
CCc1ccccc1NC(=O)CN1CCN(C(=O)COc2ccccc2C#N)CC1 | inactive | –
O=C(CCc1ccccc1)N1Cc2cc(-c3ccccc3)ccc2-n2nncc2C1 | inconclusive: 29.1 µM [cytotoxic, single point] | –
Cc1cccc(NC2=NCCCS2)c1 | inactive | –
CCOC(=O)[C@]12Cc3cc(Cl)ccc3[C@H]1N(C(C)C)C(=O)c1ccccc12 | active: 2.59 µM | –

SMILES | Potency | activity change, negative = cytotoxic
CCOC(=O)[C@]12Cc3ccccc3[C@H]1N(C(C)C)C(=O)c1cc(OC)ccc12 | active: 3.66 µM | –
CN1CCN(CCOC2c3ccccc3CSc3ccc(Cl)cc32)CC1 (stereo unspecified) | inconclusive: 18.4 µM [cytotoxic, single point] | –
Cc1cc(S(=O)(=O)NC(C)C)ccc1OCC(=O)N1CCN(Cc2ccc3c(c2)OCO3)CC1 | active: 16.4 µM | –
COC(=O)C1=C(c2ccccc2OCc2ccccc2)C[C@@H]2CC[C@H]1N2C(=O)NCc1ccccc1 | inconclusive: 20.6 µM [cytotoxic, single point] | –
O=C(NCCN1CCC(n2c(=O)[nH]c3ccccc32)CC1)c1ccc2ccccc2c1 | – | inconclusive: 13.4%
CCCCCn1c(N)c(C(=O)NCCN2CCOCC2)c2nc3ccccc3nc21 | inconclusive: 32.6 µM [cytotoxic, single point] | –
COC(=O)C1=C(c2ccc(OC(F)(F)F)cc2)C[C@@H]2CC[C@H]1N2C(=O)NCCOc1ccc(OC)cc1 | inconclusive: 29.1 µM [cytotoxic, single point] | –
COC(=O)C1=C(c2cccc(OCc3ccccc3)c2)C[C@@H]2CC[C@H]1N2C(=O)NCc1ccc(OC)c(OC)c1 | inconclusive: 29.1 µM [cytotoxic, single point] | –
Cc1cccn2c(=O)c3cc(C(=O)N4CCC5(CC4)OCCO5)n(C)c3nc12 | active: 3.26 µM | –
COC(=O)C1=C(c2ccc(OC)c(OC)c2)C[C@@H]2CC[C@H]1N2C(=O)NCCOc1ccccc1 | inactive | –
Cc1ccc(Cn2cccc(C(=O)Nc3cc([N+](=O)[O-])ccc3C)c2=O)cc1 | – | inconclusive: -11.1%
O=C1CN=C(c2ccc(F)cc2)c2oc3ccccc3c2N1 | inconclusive: 29.1 µM [cytotoxic, single point] | –
COc1ccc(OCC(=O)N2CCN(C3CCC(c4ccccc4)CC3)CC2)cc1 (stereo unspecified) | inactive | –
COc1ccc(NP(=O)(Oc2cccc(C)c2)Oc2cccc(C)c2)cc1OC | inconclusive: 16.4 µM [cytotoxic, single point] | –
CCCCCCOc1ccc(CN2CCN(C)CC2)cc1 | inconclusive: 20 µM [cytotoxic, single point] | –
COC(=O)C1=C(c2ccc(OCc3ccccc3)cc2)C[C@@H]2CC[C@H]1N2C(=O)NCCc1ccc(F)cc1 | inconclusive: 18.4 µM [cytotoxic, single point] | –
CC1=CC2OC3CC4OC(=O)C=CC=CC(=O)OCCC(C)C(O)C(=O)OCC2(CC1)C4(C)C31CO1 (stereo unspecified) | active: 0.0366 µM | –
CCc1ccccc1NC(=O)CSc1nnc([C@@H](N)Cc2c[nH]c3ccccc23)o1 | inactive | –
CCCCC(=O)N/N=C/c1c(O)n(CCC2=CCCCC2)c(=O)[nH]c1=O | inconclusive: 29.1 µM [cytotoxic, single point] | –
COC(=O)C1=C(c2cccc(OCc3ccccc3)c2)C[C@@H]2CC[C@H]1N2C(=O)NCCOc1ccccc1 | inconclusive: 29.1 µM [cytotoxic, single point] | –
N#Cc1cc2c(nc1SCC(=O)Nc1ccc(OC(F)(F)F)cc1)C1CCN2CC1 | inconclusive: 18.4 µM [cytotoxic, single point] | –
CC(C)(OOC1(c2ccccc2)NC(=O)c2ccccc21)c1ccccc1 (stereo unspecified) | inactive | –

SMILES | Potency | activity change, negative = cytotoxic
CP(=O)(Nc1ccccc1)C(Cl)(Cl)Cl (stereo unspecified) | inactive | –
CC(C)(C)n1nnnc1C(CCc1ccccc1)N1CCC2(CC1)C(=O)NCN2c1ccccc1 (stereo unspecified) | inconclusive: 29.1 µM [cytotoxic, single point] | –
O=C1NC(=O)N(Cc2ccccc2)C(=O)/C1=C\c1ccco1 | inactive | –
COC(=O)C1=C(c2ccc(F)cc2OCc2ccccc2)C[C@@H]2CC[C@H]1N2C(=O)NCC1CC1 | inconclusive: 20.6 µM [cytotoxic, single point] | –
CCCNC(=O)N1[C@H]2CC[C@@H]1C(C(=O)OC)=C(c1cc3ccccc3s1)C2 | inconclusive: 23.1 µM [cytotoxic, partial curve, poor fit] | –
C=CCn1c(O)c(C(C)=Nc2ccc(N(CC)CC)cc2)c(=O)[nH]c1=O | active: 5.8 µM | –
Cc1ccc(-c2cc(-c3ccccc3)cc(-c3ccccc3)[n+]2-c2ccccc2C(=O)O)cc1 | inconclusive: 29.1 µM [cytotoxic, single point] | –
O=c1c2ccccc2nc(/C=C\c2ccc(F)cc2)n1-c1ccccc1F | inconclusive: 29.1 µM [cytotoxic, single point] | –
c1ccc(CCCN2CCN(CCOC(c3ccccc3)c3ccccc3)CC2)cc1 | inconclusive: 29.1 µM [cytotoxic, single point] | –
O=C(OC1CCN(CCCl)CC1)C(c1ccccc1)c1ccccc1 | inactive | –
COc1cccc(-n2c(O)c(C=NCCN3CCOCC3)c(=O)[nH]c2=O)c1 | – | inconclusive: 31.4%
Cc1cc(C=O)c(C)n1C1CC1 | inactive | –
O=c1c2ccccc2nc(/C=C/c2ccc(O)cc2)n1-c1ccc(O)cc1 | inactive | –
CCOC(=O)c1cccc(-[n+]2c(-c3ccccc3)cc(-c3ccccc3)cc2-c2ccccc2)c1 | inconclusive: 4.61 µM [cytotoxic, full curve, poor fit] | –
COC(=O)C1=C(c2ccc(Cl)c(C(F)(F)F)c2)C[C@@H]2CC[C@H]1N2C(=O)NC1CCCCC1 | inconclusive: 29.1 µM [cytotoxic, single point] | –
COc1ccc(CCC(C)NCCc2ccccc2)cc1 (stereo unspecified) | inconclusive: 7.31 µM [rising, partial curve, poor fit] | –
CCCOc1ccc(N2C(=O)CC(N3CC=C(c4ccccc4)CC3)C2=O)cc1 (stereo unspecified) | inconclusive: 20.6 µM [rising, single point] | –
Fc1ccc(C[n+]2c(-c3ccccc3)cc(-c3ccccc3)cc2-c2ccccc2)cc1 | active: 16.4 µM | –
COC(=O)C1=C(c2cccc(OCc3ccccc3)c2)C[C@@H]2CC[C@H]1N2C(=O)NCc1cccc(F)c1 | inconclusive: 29.1 µM [cytotoxic, single point] | –
CCC(=NCCC(c1ccccc1)c1ccccc1)c1c(O)n(C)c(=O)n(C)c1=O | inconclusive: 10.3 µM [cytotoxic, partial curve] | –
COC(=O)C[C@H]1CC[C@H]2NC[C@@H](O)COC[C@@H]2O1 | – | inconclusive: 6.52%
Cc1ccsc1C(=O)C1CCCN(Cc2cccn2-c2ccccn2)C1 (stereo unspecified) | inconclusive: 20.6 µM [cytotoxic, single point] | –

4 entries out of the list, sorted by heavy-atom count, low to high.
SMILES | Potency | activity change, negative = cytotoxic
CC(=O)c1cn(Cc2ccc(C#N)cc2)c2ccccc12 | inactive | –
COc1cccc(-n2c(O)c(C=NCCN3CCOCC3)c(=O)[nH]c2=O)c1 | – | inconclusive: 31.4%
Cc1ccc(Cn2cccc(C(=O)Nc3cc([N+](=O)[O-])ccc3C)c2=O)cc1 | – | inconclusive: -11.1%
COC1C(OC(=O)c2ccc(C)[nH]2)C(O)C(Oc2ccc3c(O)c(NC(=O)c4ccc(O)c(CC=C(C)C)c4)c(=O)oc3c2Cl)OC1(C)C (stereo unspecified) | inconclusive: 32.6 µM [cytotoxic, partial curve, poor fit] | –
